Reference: PubChem BioAssay AID652054 (National Center for Advancing Translational Sciences (NCATS), 2013)
Screen size: about 360,000 compounds; about 9,100 (2.5%) were called active. Inconclusive means that the source gave no clear call. Such entries were picked first, then a sample of the others. No stated cut-off is given here; in the data, active means max response below about -50%; inconclusive means no clear call, values can overlap the other calls; inactive means above that.

The chains behind the UniProt entries cited, without tags or fusion partners.
UniProt P35462, whole entry, looked up: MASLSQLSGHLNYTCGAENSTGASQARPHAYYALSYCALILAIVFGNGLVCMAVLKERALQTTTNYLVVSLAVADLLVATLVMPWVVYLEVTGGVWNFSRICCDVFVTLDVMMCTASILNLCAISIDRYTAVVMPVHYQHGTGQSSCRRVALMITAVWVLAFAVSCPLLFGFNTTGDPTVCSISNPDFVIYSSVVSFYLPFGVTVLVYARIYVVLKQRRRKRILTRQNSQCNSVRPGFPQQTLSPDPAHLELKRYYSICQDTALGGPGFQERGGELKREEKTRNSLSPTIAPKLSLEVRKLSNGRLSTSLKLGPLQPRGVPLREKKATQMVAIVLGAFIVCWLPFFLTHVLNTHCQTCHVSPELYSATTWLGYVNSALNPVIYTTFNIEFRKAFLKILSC

target: D(3) dopamine receptor (Homo sapiens) (UniProt P35462); assay: qHTS of D3 Dopamine Receptor Antagonist: qHTS; conditions: D3R cells, DiscoveRx beta-arrestin luminescence, antagonist mode; active compounds read low
How it was run: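 Cells plated overnight at 1500 cells/well, then exposed to library compounds with dopamine controls for 90 minutes at 37 degrees C. DiscoveRx reagent added for 30–60 minutes at room temperature; luminescence read, quantitative HTS format.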
On the % scale 0 is the no-effect control and ±100 the full control effect.

Row | SMILES | max response, negative = inhibition
1 | COc1ccc(NC(=O)C(c2ccccc2)n2c(=O)c(-c3cc4ccccc4[nH]3)nc3ccccc32)cc1 (stereo not drawn) | inactive: -3.83%
2 | Cc1cc2nc(-c3cccc(Br)c3)c(CC(C)(C)C)n2c(C)c1Br | inactive: 7.83%
3 | Cc1ccc(CSCC(=O)N(C)CC(=O)Nc2ccccc2Cl)cc1 | inactive: -10%
4 | O=C(O)c1cccc(S(=O)(=O)N2CCC(n3nnc4cc(C(F)(F)F)ccc43)CC2)c1 | active: -76%
5 | OC(c1ccc(F)c(F)c1)c1nc(-c2cnc3ccccc3c2)cs1 (stereo not drawn) | inactive: -5.91%
6 | O=C(NCc1ccccn1)C1CCN(S(=O)(=O)N2CCC3(CC2)OCCO3)CC1 | inconclusive: -37.8%
7 | O=C(CN(c1ccc(Cl)cc1)S(=O)(=O)c1ccc(Cl)c([N+](=O)[O-])c1)NCCc1ccccc1 | inconclusive: -30.2%
8 | COc1cc(CN2CCC(Cc3ccccc3)CC2)cc(OC)c1OC | inconclusive: -46.6%
9 | CN(c1ccccc1)S(=O)(=O)c1ccccc1Br | inconclusive: -35.3%
10 | C=C(C)Cn1c2ccc(NC(=O)NCc3ccc(F)cc3)cc2c(=O)n1C | inactive: 0%
11 | Cc1ccc(Sc2ncccc2COC(=O)Nc2c(C)cccc2C)cc1 | inconclusive: -39.1%
12 | COc1ccc(OC)c(NC(=O)c2cccc(N3C(=O)C4C5C=CC(C6CC56)C4C3=O)c2)c1 (stereo not drawn) | inactive: 34.9%
13 | Cn1cc(Br)c(C(=O)NNC(=O)Nc2ccccc2C(F)(F)F)n1 | inconclusive: -33.8%
14 | CC(C)(C)NCC(O)COc1ccccc1C1CCCC1 (stereo not drawn) | inconclusive: -35.4%
15 | CCCCc1nc2ccccc2c(N)c1CCC (tested in a mixture with another compound) | inactive: 1.12%
16 | CCCc1c(C)nc2scc(-c3ccc(Cl)cc3)n2c1=O | inactive: 3.72%
17 | CCCNC(=O)C1(C)CCCN(C(=O)C2(c3ccc(Cl)cc3)CCCC2)C1 (stereo not drawn) | inconclusive: -37.1%
18 | S=c1[nH]ncn1/N=C/c1cccc(Oc2ccccc2)c1 | inconclusive: -49.4%
19 | O=[N+]([O-])c1cc(C(F)(F)F)ccc1NCCCCNS(=O)(=O)c1ccc(Cl)cc1 | inconclusive: -37.8%
20 | O=C(Nc1ccc(F)cc1)c1nc2c(nnn2Cc2cccc3ccccc23)c(=O)[nH]1 | inconclusive: -31.9%
21 | COc1ccc(/C=N/Nc2ccc([N+](=O)[O-])cc2)cc1Cn1cc([N+](=O)[O-])cn1 | inconclusive: -30.3%
22 | CCC(=O)Nc1ccc(NC(=O)CSc2nc3c(c(=O)n(C)c(=O)n3C)n2CC)cc1 | inconclusive: -31.3%
23 | O=[N+]([O-])c1ccc(/C=N/n2cn[nH]c2=S)cc1 | inconclusive: -39.3%
